Results are given in words; binding and its absence hold for the method and conditions named.
Tests used:
[1] = target: recombinant human MASP-1 (human) (UniProt P48740); test: SDS-stable serpin/protease complex on SDS-PAGE; increasing concentrations of MASP-1 or MASP-2 incubated with SMSB3 and SMSB4 for 1 h at room temperature; 10% SDS-PAGE; shows covalent complexes only; both purified
[2] = target: recombinant human MASP-2 (human) (UniProt O00187); test: as above
[3] = target: recombinant human MASP-1 (human) (UniProt P48740); test: SDS-stable serpin/protease complex on SDS-PAGE; C1r, C1s, MASP-1, MASP-2 or MASP-3 incubated with SMSB3, SMSB4 or human C1-inhibitor for 1 h at room temperature; 10% SDS-PAGE; shows covalent complexes only; both purified
[4] = target: recombinant human MASP-2 (human) (UniProt O00187); test: as above
[5] = target: recombinant MASP-3 (human) (UniProt P48740); test: as above

The chains behind the UniProt entries cited, without tags or fusion partners. Where a name states a change or a piece, a line headed by the entry shows the natural chain unless it says otherwise. A line that says so, or that is headed by a name, gives the form on record, which may keep a tag or linker. Residues count along the entry.
recombinant human MASP-1 (P48740, residues 20-699): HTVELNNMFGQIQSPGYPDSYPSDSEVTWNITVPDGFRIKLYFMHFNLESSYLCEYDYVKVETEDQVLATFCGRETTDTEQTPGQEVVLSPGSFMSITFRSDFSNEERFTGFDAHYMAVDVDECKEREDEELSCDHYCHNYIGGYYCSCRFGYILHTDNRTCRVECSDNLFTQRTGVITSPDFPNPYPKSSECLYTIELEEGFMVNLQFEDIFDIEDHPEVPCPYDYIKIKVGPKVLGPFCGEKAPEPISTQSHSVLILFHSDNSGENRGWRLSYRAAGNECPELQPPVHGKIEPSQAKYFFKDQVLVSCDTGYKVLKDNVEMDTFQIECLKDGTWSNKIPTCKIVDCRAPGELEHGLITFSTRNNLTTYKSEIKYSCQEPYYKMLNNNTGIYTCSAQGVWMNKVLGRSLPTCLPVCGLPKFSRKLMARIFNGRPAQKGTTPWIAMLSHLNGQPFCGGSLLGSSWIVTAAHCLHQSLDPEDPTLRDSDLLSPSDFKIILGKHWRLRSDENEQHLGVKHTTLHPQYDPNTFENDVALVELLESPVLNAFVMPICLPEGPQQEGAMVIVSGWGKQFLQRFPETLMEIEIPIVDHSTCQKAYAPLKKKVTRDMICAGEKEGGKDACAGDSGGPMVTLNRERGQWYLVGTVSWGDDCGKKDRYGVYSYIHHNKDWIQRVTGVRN
recombinant MASP-3 (P48740, form named): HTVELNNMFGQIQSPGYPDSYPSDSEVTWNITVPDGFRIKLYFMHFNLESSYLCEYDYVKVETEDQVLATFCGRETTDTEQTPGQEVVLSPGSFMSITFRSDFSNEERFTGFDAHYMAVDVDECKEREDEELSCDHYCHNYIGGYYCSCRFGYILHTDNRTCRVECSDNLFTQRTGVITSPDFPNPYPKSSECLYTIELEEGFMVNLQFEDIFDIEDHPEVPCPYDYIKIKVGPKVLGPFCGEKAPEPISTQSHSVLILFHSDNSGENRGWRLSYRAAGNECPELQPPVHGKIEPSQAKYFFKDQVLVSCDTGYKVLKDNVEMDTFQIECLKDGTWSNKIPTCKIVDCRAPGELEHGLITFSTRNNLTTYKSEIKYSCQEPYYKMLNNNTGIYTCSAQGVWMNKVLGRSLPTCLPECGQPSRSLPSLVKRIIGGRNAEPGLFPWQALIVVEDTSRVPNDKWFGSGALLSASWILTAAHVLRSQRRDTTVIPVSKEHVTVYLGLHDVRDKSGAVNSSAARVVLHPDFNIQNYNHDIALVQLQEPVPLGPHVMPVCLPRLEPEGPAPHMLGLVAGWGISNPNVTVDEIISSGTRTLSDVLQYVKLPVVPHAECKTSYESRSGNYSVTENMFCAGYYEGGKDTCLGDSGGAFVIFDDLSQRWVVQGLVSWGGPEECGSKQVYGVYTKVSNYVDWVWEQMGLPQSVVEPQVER
UniProt O00187, residues 16-686: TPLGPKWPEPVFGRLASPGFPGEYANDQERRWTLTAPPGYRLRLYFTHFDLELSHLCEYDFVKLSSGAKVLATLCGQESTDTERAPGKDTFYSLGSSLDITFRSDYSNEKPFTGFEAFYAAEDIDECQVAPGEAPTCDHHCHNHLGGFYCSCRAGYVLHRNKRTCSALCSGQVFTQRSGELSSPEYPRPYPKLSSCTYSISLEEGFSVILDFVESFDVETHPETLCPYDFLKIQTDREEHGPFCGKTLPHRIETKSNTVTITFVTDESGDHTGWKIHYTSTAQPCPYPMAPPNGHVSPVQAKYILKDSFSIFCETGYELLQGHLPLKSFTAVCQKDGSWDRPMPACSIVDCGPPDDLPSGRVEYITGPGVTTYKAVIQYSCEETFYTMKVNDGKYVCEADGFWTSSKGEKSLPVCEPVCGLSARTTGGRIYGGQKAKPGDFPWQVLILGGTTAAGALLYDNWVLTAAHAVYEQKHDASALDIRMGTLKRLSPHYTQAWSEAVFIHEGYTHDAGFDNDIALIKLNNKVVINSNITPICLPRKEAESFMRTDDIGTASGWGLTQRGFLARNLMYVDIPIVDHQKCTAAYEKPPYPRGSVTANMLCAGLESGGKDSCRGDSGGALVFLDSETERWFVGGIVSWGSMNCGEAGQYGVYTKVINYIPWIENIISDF

Measured: binding

B1: scabies mite serpin SMSB4, wild type (protein, UniProt A0A834R821 30-498)
chain: KPQHHSQSHQQPVLASDPNEDPLKALNLLQQQKQFTEHFFQQNNEKLNLLGGQEIIKCFDVNFTSNVLNNIDHISKIMIDGSRHFGLRLFQILNLFEPKTSSPGLVYSPISVWSTLILTYLGSDGVTEQELSQKLKLNQLPKPLVALAYRSLKWWKDFNVLKLMQNHTDATQVCSANKLYINDHLLVKDCFRTIFGDEIEMKSFSSRPQESLSEINDWVRVQTQGHIPNLLGPESISSNTNIVMINAVYFKSFWAQQFDSSKTKKQRFYVSMNEELEADMMTMDSVSVMYGISEELRASAVEIPYSNPDYSFLIILPDITRSLDSMIRTLTWNKIQLLLQNMYDDEVKLMIPKFRSEQEFELAGPLFSLGIKKLFDPRYANLNSIFMNSNNSRVALDSVIHKSFISVDEEGTEAAAATAVIFARSGRPAFPTEFIADRPFLYIIRDVSSNQLLFIGTVRRPYASQAIVA
no binding: all assays above
